According to publication PMC7306619:
These are yes or no findings as the source states them, for the method shown. For some of these results: Binding seen in cells or lysates may run through a third protein. Some binding calls cover weakened binding; strength is not graded here. For some of these results: Tags and fused reporters may be left off the sequences shown. Each block holds one molecule with its values, some of them ahead of it.

Sequences of proteins named here, by UniProt entry; tags and fusion partners are left off.
UniProt Q38832: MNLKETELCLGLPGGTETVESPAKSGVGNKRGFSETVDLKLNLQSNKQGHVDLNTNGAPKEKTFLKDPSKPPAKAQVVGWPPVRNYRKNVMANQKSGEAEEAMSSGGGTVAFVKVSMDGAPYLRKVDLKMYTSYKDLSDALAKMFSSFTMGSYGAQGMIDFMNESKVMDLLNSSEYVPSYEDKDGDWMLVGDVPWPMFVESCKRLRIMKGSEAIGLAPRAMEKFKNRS

Experiments:
[1] = target: T1, GST‐AtDi19‐3 (Arabidopsis thaliana) (UniProt Q84J70); assay: pull-down; GST fusion or GST from bacterial lysate immobilised on GSH-Sepharose 4B and washed; about 4 ug pre-cleared bacterial extract of the 6xHis protein, 1 h at 4 C in EB (150 mM NaCl, 100 mM Tris-Cl pH 7.5, 0.5% NP40, protease inhibitor, MG132), with 5 uM IAA and 50 uM MG132 (for OsDi19-5 also without IAA); anti-His immunoblot; only the target purified
T1 sequence: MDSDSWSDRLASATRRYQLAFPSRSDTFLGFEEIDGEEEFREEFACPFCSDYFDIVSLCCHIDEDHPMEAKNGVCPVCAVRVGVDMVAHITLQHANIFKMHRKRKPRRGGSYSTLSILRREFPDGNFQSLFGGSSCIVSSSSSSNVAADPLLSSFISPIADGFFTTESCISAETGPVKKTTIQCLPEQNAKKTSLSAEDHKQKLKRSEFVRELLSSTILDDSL

[2] = target: AtIAA14/cYFPC1 (Arabidopsis thaliana) (UniProt Q38832); assay: split reporter; split EYFP (pSITE-cEYFPC1 and pSITE-nEYFPC1) co-bombarded into onion epidermal cells; confocal microscopy, fluorescence in the nucleus
[3] = target: AtIAA14 (Gal4 DNA-binding domain fusion, yeast two-hybrid) (Arabidopsis thaliana) (UniProt Q38832); assay: two-hybrid; direct test: Di19 in pGADT7 and Aux/IAA in pGBKT co-transformed in AH109; SD/-LW and SD/-HLW; HIS3 and MEL1 reporters
[4] = target: T2, AtIAA16 (Gal4 DNA-binding domain fusion, yeast two-hybrid) (Arabidopsis thaliana) (UniProt O24407); assay: as above
T2 sequence: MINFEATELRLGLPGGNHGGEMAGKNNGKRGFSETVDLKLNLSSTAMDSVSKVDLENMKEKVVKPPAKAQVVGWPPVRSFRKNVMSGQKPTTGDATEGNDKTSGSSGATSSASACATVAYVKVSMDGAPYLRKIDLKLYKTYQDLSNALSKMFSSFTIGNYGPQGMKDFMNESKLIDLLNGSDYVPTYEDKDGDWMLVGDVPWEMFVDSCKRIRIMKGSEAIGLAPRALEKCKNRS

binding [1]: binds
Molecule: 6xHis‐AtIAA14 (from UniProt Q38832 1-228)

binding [2]: binds
B1: AtDi19‐3/nYFPC1 (protein, UniProt Q84J70 1-223)
chain: MDSDSWSDRLASATRRYQLAFPSRSDTFLGFEEIDGEEEFREEFACPFCSDYFDIVSLCCHIDEDHPMEAKNGVCPVCAVRVGVDMVAHITLQHANIFKMHRKRKPRRGGSYSTLSILRREFPDGNFQSLFGGSSCIVSSSSSSNVAADPLLSSFISPIADGFFTTESCISAETGPVKKTTIQCLPEQNAKKTSLSAEDHKQKLKRSEFVRELLSSTILDDSL

binding [3]: binds
binding [4]: no binding
B2: AtDi19‐3 (Gal4 activation domain fusion, yeast two-hybrid) (protein, UniProt Q84J70 1-223)
chain: MDSDSWSDRLASATRRYQLAFPSRSDTFLGFEEIDGEEEFREEFACPFCSDYFDIVSLCCHIDEDHPMEAKNGVCPVCAVRVGVDMVAHITLQHANIFKMHRKRKPRRGGSYSTLSILRREFPDGNFQSLFGGSSCIVSSSSSSNVAADPLLSSFISPIADGFFTTESCISAETGPVKKTTIQCLPEQNAKKTSLSAEDHKQKLKRSEFVRELLSSTILDDSL
